# Assay results taken from the supplement of paper PMC12067093, “Discovery and optimisation of a covalent ligand for TRIM25 and its application to targeted protein ubiquitination” (Chemical Science, 2025).
# Protein sequences, listed by entry. Tags and fused reporters are not part of them. Lines headed by an entry give the natural chain unless they say otherwise; changes in a name come on top.
# UniProt O75818: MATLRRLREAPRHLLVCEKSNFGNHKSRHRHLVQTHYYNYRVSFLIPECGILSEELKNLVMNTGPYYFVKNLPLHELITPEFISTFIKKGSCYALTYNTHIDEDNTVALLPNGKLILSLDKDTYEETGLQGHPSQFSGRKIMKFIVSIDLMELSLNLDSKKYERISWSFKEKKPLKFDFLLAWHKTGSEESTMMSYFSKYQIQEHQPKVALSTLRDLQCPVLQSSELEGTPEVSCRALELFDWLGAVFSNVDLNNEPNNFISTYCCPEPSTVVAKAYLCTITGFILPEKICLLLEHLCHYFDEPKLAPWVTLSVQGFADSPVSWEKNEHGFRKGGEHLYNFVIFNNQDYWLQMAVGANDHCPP
# UniProt P23443: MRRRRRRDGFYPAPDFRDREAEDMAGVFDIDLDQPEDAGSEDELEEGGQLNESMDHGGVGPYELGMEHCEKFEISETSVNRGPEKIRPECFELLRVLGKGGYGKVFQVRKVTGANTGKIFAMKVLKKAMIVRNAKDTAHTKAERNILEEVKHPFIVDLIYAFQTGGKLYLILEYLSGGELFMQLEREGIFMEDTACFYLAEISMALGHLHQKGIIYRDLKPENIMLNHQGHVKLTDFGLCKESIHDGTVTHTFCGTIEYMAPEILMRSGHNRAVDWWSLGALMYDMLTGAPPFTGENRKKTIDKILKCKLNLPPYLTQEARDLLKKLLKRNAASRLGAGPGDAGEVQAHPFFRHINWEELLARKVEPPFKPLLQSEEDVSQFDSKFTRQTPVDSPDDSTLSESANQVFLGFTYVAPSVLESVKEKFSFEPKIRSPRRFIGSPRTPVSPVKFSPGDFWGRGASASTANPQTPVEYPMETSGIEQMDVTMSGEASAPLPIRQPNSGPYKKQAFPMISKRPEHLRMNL
# UniProt Q14151: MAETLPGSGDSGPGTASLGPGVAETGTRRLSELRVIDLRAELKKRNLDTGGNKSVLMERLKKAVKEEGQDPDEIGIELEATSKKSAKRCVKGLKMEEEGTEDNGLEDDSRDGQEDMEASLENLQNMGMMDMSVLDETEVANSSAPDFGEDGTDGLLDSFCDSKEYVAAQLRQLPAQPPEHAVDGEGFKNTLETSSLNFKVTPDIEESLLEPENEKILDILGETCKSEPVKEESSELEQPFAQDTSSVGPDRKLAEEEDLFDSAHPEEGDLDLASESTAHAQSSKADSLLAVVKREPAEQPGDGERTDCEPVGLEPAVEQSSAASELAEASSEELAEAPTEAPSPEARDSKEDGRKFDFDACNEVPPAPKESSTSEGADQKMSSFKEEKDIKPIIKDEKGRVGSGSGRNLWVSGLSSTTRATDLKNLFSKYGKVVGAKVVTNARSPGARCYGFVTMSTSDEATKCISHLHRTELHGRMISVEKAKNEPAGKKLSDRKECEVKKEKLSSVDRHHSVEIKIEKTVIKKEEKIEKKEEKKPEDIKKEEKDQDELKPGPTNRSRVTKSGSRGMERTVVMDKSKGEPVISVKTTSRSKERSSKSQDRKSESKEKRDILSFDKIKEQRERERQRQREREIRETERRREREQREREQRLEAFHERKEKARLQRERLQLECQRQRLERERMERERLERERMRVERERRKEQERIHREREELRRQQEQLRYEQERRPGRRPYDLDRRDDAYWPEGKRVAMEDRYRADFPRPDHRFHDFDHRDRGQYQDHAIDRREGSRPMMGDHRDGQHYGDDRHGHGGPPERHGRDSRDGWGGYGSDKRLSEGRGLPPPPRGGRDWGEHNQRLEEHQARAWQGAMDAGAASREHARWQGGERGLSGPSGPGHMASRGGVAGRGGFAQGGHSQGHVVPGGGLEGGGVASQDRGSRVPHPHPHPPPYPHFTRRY
# UniProt Q9UBE0: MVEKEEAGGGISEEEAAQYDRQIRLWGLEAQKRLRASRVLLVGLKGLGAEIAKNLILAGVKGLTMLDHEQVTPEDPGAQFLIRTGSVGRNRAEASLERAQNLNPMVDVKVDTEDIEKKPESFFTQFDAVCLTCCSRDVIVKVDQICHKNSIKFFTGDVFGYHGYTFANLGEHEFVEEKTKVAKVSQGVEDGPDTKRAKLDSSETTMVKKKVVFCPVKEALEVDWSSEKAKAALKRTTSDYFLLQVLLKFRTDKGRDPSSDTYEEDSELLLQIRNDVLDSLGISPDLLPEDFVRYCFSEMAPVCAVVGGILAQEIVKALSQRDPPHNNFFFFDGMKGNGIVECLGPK
# UniProt Q96T51: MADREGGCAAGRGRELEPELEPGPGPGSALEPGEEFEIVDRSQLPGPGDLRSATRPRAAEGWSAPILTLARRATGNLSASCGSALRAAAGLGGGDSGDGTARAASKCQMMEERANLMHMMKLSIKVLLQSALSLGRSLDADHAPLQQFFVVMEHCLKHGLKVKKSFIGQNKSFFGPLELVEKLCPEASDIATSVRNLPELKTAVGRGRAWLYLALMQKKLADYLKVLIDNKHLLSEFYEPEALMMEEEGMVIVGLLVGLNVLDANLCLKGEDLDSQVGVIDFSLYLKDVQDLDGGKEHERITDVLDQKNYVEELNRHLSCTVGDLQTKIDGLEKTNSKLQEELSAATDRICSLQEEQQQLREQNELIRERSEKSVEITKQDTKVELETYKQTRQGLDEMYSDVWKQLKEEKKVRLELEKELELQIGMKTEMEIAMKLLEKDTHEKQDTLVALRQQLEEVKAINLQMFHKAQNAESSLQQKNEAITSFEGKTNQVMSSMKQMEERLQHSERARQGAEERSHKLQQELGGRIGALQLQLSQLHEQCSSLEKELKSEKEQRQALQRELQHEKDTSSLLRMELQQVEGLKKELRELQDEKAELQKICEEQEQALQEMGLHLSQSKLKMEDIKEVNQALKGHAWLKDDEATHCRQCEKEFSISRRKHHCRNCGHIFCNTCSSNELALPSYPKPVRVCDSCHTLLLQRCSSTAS
# UniProt Q5VWQ0: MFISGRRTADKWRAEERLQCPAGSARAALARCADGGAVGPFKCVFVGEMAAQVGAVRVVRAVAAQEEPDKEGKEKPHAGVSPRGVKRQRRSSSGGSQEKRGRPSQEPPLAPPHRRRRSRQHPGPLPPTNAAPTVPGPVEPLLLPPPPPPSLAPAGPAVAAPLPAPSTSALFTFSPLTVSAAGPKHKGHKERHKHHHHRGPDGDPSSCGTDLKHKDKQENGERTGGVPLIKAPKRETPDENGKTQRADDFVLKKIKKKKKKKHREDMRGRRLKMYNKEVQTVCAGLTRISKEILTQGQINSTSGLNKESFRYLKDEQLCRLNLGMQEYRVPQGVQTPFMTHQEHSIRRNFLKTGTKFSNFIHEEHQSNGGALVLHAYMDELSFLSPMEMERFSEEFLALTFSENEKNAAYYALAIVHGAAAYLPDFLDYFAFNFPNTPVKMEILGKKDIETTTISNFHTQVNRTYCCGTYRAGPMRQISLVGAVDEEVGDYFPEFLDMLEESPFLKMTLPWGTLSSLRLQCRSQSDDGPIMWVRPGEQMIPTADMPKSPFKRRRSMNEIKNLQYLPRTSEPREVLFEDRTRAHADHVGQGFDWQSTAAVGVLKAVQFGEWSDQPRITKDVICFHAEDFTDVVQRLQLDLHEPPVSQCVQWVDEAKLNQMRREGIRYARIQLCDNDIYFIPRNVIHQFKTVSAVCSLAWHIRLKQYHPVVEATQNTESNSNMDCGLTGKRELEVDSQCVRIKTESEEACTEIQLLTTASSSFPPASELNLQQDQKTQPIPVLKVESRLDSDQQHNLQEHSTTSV
# UniProt Q9Y265, whole entry, looked up: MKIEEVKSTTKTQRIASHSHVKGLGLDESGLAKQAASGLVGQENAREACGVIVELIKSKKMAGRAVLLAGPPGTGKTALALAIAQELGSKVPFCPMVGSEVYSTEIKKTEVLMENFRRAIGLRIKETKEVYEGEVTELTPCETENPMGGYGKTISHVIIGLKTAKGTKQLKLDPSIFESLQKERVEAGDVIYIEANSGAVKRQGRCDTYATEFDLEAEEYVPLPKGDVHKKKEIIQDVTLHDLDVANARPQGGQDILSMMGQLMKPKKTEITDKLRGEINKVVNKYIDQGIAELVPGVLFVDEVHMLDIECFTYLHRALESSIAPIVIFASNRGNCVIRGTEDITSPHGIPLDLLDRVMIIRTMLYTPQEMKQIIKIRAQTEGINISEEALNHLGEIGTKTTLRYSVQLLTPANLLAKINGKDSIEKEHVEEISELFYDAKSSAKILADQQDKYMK
# UniProt Q9NTJ5: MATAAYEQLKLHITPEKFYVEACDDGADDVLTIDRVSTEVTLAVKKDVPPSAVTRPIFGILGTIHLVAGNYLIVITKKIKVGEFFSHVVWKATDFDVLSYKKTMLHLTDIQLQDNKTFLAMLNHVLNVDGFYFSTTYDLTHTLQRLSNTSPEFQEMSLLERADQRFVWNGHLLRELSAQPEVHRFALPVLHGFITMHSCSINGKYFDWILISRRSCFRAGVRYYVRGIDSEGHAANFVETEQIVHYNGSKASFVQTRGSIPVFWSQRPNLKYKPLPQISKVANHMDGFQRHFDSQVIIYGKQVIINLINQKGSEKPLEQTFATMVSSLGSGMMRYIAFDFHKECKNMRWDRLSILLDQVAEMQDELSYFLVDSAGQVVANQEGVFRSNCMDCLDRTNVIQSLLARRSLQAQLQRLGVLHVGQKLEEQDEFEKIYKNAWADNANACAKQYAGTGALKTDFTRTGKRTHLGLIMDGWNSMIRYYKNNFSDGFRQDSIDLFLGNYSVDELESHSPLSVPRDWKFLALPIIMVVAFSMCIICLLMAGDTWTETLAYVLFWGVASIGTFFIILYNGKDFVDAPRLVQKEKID
# UniProt Q6PCB5: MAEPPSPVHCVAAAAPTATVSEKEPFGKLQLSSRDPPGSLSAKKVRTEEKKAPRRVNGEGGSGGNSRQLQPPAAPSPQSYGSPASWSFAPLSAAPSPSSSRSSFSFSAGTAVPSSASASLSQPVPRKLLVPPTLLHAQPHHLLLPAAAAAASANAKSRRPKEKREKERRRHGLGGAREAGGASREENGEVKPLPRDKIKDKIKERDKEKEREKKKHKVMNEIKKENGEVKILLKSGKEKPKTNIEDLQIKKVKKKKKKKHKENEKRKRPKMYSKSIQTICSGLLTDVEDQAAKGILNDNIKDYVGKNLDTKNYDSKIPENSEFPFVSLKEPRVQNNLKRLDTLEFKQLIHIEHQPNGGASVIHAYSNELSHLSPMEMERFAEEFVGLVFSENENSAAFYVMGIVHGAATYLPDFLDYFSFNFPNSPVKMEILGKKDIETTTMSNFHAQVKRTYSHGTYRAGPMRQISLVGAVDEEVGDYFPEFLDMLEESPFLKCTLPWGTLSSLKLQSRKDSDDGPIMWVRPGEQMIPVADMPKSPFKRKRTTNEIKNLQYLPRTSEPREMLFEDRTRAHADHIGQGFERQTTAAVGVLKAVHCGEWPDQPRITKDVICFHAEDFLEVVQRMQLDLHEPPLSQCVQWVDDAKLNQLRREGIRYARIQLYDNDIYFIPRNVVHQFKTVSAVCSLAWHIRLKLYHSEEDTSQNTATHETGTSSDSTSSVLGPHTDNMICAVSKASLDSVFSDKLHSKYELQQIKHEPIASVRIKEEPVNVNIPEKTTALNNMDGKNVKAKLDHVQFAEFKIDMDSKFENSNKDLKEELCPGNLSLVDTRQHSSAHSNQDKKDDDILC
# UniProt Q8IZ73: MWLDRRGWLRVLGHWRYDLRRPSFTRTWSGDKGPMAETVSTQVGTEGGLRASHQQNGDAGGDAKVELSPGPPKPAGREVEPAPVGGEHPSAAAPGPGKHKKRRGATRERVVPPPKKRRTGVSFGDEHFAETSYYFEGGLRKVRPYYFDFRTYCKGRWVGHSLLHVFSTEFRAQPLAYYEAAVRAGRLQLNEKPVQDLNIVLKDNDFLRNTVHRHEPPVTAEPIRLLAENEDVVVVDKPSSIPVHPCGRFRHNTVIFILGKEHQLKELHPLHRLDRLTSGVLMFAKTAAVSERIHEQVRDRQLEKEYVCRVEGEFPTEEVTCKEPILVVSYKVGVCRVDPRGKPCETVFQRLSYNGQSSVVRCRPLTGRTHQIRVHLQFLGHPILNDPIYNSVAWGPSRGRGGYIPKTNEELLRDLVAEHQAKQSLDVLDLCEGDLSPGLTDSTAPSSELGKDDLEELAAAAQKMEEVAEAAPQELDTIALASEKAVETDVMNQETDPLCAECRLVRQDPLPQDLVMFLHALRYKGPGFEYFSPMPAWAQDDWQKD
# UniProt Q5VZM2, whole entry, looked up: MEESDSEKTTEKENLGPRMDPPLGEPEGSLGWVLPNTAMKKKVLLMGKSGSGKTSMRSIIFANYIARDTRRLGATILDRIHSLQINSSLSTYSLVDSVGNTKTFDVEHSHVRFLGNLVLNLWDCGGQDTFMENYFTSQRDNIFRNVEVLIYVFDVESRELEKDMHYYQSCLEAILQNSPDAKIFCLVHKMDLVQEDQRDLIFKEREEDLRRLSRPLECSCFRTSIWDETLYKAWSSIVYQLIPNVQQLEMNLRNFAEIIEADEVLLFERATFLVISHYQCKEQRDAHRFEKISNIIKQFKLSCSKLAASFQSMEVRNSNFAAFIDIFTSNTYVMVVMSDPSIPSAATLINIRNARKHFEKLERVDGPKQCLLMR
# The list shows a part of the results.
# Compound: CC1Cc2ccccc2N1C(=O)C1CCCN(C1)C(=O)CCl (mixture of isomers) [TRIM25 ligand 11 (diastereomer mixture)]
# Assay: probe-labelled cysteine peptide fold change vs DMSO (competition) (log2 fold change); higher = less target engagement (more negative = stronger competition)
# Conditions: 10 µM; THP-1; incubation time: 4 h
# 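Further: competitive chemoproteomic profiling in live THP-1 cells with an iodoacetamide desthiobiotin (IA-DTB) probe, comparing probe-labelled peptide intensities in compound-treated cells against DMSO-treated controls.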
row,Target,probe-labelled cysteine peptide fold change
1,RPP40_O75818_219+235_DLQCPVLQSSELEGTPEVSCR (UniProt O75818),-0.0775
2,RPS6KB1_P23443_254_ESIHDGTVTHTFCGTIEYMAPEILMR (UniProt P23443),0.0349
3,SAFB2_Q14151_464_CISHLHR (UniProt Q14151),-0.0285
4,SACS_Q9NZJ4_3694_QCDVLQLLWTSCPILPEK (UniProt Q9NZJ4),-0.00918
5,SAE1_Q9UBE0_134_VDTEDIEKKPESFFTQFDAVCLTCCSR (UniProt Q9UBE0),-0.502
6,SAFB2_Q14151_672_ERLQLECQR (UniProt Q14151),-5.87e-05
7,RPS27A_P62979_121_ECPSDECGAGVFMASHFDR (UniProt P62979),-0.176
8,RPP40_O75818_235_DLQCPVLQSSELEGTPEVSCR (UniProt O75818),0.892
9,RUFY1_Q96T51_648_DDEATHCR (UniProt Q96T51),-0.352
10,RSBN1_Q5VWQ0_671_IQLCDNDIYFIPR (UniProt Q5VWQ0),0.00486
11,RTFDC1_Q9BY42_3_GCDGGTIPK (UniProt Q9BY42),-0.0238
12,RUVBL1_Q9Y265_94_VPFCPMVGSEVYSTEIK (UniProt Q9Y265),0.0537
13,RPS11_P62280_116_NMSVHLSPCFR (UniProt P62280),0.0603
14,RPS2_P15880_222_LLMMAGIDDCYTSAR (UniProt P15880),-0.0969
15,SACM1L_Q9NTJ5_23_FYVEACDDGADDVLTIDR (UniProt Q9NTJ5),-0.172
16,RPS5_P46782_155_VNQAIWLLCTGAR (UniProt P46782),0.00589
17,RSBN1L_Q6PCB5_610_DVICFHAEDFLEVVQR (UniProt Q6PCB5),-0.0248
18,RSBN1L_Q6PCB5_818_EELCPGNLSLVDTR (UniProt Q6PCB5),-0.0817
19,RPUSD2_Q8IZ73_246_LLAENEDVVVVDKPSSIPVHPCGR (UniProt Q8IZ73),-0.089

row,Target,probe-labelled cysteine peptide fold change
1,RPS3_P23396_134_GCEVVVSGK (UniProt P23396),0.0361
2,RPS21_P63220_17_CSASNR (UniProt P63220),-0.166
3,RPS2_P15880_222_KLLMMAGIDDCYTSAR (UniProt P15880),-0.59
4,RPS5_P46782_66_KAQCPIVER (UniProt P46782),0.0344
5,RRAGB_Q5VZM2_280_ATFLVISHYQCK (UniProt Q5VZM2),0.0504
6,RRP12_Q5JTH9_799_VLEEVCASPQGPGALFVQSHLEDLK (UniProt Q5JTH9),0.00703
7,RPS4X_P62701_181_FDTGNLCMVTGGANLGR (UniProt P62701),-0.102
8,RPS3A_P61247_111_MCSMVK (UniProt P61247),-0.0252
9,RSBN1_Q5VWQ0_621_DVICFHAEDFTDVVQR (UniProt Q5VWQ0),0.0761
10,RUVBL2_Q9Y230_375_IRCEEEDVEMSEDAYTVLTR (UniProt Q9Y230),0.0335
11,RREB1_Q92766_291_DAMGRPFIQNNPSIPAGFHDLGFTDFSCR (UniProt Q92766),-0.104
12,RRM1_P23921_662_NQIIACNGSIQSIPEIPDDLK (UniProt P23921),0.216
13,RPS15A_P62244_30_RQVLIRPCSK (UniProt P62244),-0.184
14,RPS11_P62280_131_DVQIGDIVTVGECRPLSK (UniProt P62280),-0.0822
15,RPS12_P25398_108_VVGCSCVVVK (UniProt P25398),0.109
16,RRP8_O43159_317_QRPASLVVADFGCGDCR (UniProt O43159),-0.0294
17,RPS20_P60866_70_TPCGEGSK (UniProt P60866),-0.0516
18,SAMD9_Q5K651_420_CHPDQTK (UniProt Q5K651),-0.031
19,RPS27A_P62979_121+126_RECPSDECGAGVFMASHFDR (UniProt P62979),-0.131
